From patent US20210380699A1
These are yes or no findings as the source states them, for the method shown. Some entries that bind do so weakly or less than the wild type.

Sequences of proteins named here, by UniProt entry; tags and fusion partners are left off. A change or cut given only in a name is not applied to a line headed by its entry. A line that says so, or that is headed by a name, gives the form on record, which may keep a tag or linker.
Cynomolgus PD-L1 expressed on CHO-S cells (G7PSE7, form named): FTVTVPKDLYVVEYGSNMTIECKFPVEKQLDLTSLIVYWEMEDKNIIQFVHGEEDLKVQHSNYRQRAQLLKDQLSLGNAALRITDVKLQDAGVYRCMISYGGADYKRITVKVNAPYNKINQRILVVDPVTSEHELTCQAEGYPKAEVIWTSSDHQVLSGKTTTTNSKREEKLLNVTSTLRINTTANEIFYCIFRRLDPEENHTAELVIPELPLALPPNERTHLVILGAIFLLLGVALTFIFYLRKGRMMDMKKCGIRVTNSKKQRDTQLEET

Molecular target: Cynomolgus PD-L1 expressed on CHO-S cells (cynomolgus monkey) (UniProt G7PSE7)
Assay: flow cytometry on CHO-S cynomolgus PD-L1 cells

binding	Binder
binds	416E01 (human IgG1) (antibody, V domains shown) VH: EVQLAESGGGLVQPGGSLRLSCAASGFTFSNYAMSWVRQTPGKGLEWVSAISFSGGTTYYADSVKGRFTISRDNSKNTLYLHMNSLRADDTAVYYCAKDEAPAGATFFDSWGQGTLVTVSS VL: DIQMTQSPSSVSASVGDRVTITCRASQGIRRWLAWYQQKPGKAPKLLISGASSLQSGVPSRFSGSGSGTDFTLIITSLQPEDFATYYCQQANSFPITFGQGTRLEIKR
binds	413G05 (antibody, human IgG1, kappa, V domains shown) VH: QVQLVESGGGLVKPGGSLRLSCAASGFTFSDYYMSWIRQVPGKGLEWVSYISTSGSTIYYADSVKGRFTISRDNAKNSLYLQMNSLRAEDAAVYHCARGITGTNFYHYGLGVWGQGTTVTVSS VL: DIQMTQSPSSVSASVGDRVTITCRASQGINSWLAWYQQKPGKAPKLLIYAASTLQSGVPSRFSGSGSGADFTLTISSLQPEDFATYYCQQVNSFPLTFGGGTKVEIKR
